# Experimental data as given in the odorant receptor screen of Mainland et al. (2015).
# “And” between values parts separate entries of the source, which are not always exact repeats. Equal entries are not always repeated. This is one part of the list. Single wells; the ratio to wells without odorant was worked out here, and repeats agree poorly.
# How the values were obtained:
# Assay in all cases: odorant receptor activation (CRE luciferase / Renilla) (fold of no-odor wells); higher = more activation
# Conditions in all cases: 100 µM
# OR2B8 Indel clone 1076 = system: OR2B8 Indel clone 1076
# OR2C1 C149W clone 1282 = system: OR2C1 C149W clone 1282
# [1] = system: OR2C1 G16S/C149W/R229H clone 1408
# [2] = system: OR2C1 P58S/C149W clone 1409
# OR2C1 clone 1406 = system: OR2C1 clone 1406
# OR2C1 clone 1407 = system: OR2C1 clone 1407
# [3] = system: OR2C3 T20A/P68S/L289V clone 1454
# OR2D2 clone 1235 = system: OR2D2 clone 1235
# OR2D3 L66I clone 1381 = system: OR2D3 L66I clone 1381
# OR2F1 clone 1082 = system: OR2F1 clone 1082
# OR2F2 A98V clone 1087 = system: OR2F2 A98V clone 1087
# [4] = system: OR2G2 P24A/V120L/R236G clone 1349
# OR2G2 clone 1385 = system: OR2G2 clone 1385
# OR2G3 clone 1328 = system: OR2G3 clone 1328
# OR2G3 clone 1382 = system: OR2G3 clone 1382
# OR2G6 clone 1487 = system: OR2G6 clone 1487
# OR2H1 clone 1393 = system: OR2H1 clone 1393
# [5] = system: OR2H2 L30F/A48V clone 1061
# OR2H2 clone 1066 = system: OR2H2 clone 1066
# OR2J2 T111A clone 1073 = system: OR2J2 T111A clone 1073
SMILES,odorant receptor activation (OR2B8 Indel clone 1076),odorant receptor activation (OR2C1 C149W clone 1282),odorant receptor activation [1],odorant receptor activation [2],odorant receptor activation (OR2C1 clone 1406),odorant receptor activation (OR2C1 clone 1407),odorant receptor activation [3],odorant receptor activation (OR2D2 clone 1235),odorant receptor activation (OR2D3 L66I clone 1381),odorant receptor activation (OR2F1 clone 1082),odorant receptor activation (OR2F2 A98V clone 1087),odorant receptor activation [4],odorant receptor activation (OR2G2 clone 1385),odorant receptor activation (OR2G3 clone 1328),odorant receptor activation (OR2G3 clone 1382),odorant receptor activation (OR2G6 clone 1487),odorant receptor activation (OR2H1 clone 1393),odorant receptor activation [5],odorant receptor activation (OR2H2 clone 1066),odorant receptor activation (OR2J2 T111A clone 1073)
CC12CCC(CC1)C(C)(C)O2 [cineole],0.875,0.872,0.283,0.315,0.381,0.282,0.973,0.762,0.227,1.01,0.769,0.938,0.138,0.988,0.208,1.08,0.173,0.994,0.71,1.04
"CC1CCC(C(C)C)C(O)C1 (single isomer, unassigned; (+)) [(+)-menthol]",3.42,1.49,1.32,1.57,1.38,1.05,1.13,0.754,0.382,2.8,18.7,1,1.71,0.753,1.21,0.91,1.34,3.15,4.53,1.79
CCCCCCCCCC=O [decyl aldehyde],1,1.04,1.29,1.16,1,1.37,0.805,1.06,1.36,1.25,1.28,1.44,1.47,1.21,1.11,0.917,1.42,1.05,1.06,1.1
CC/C=C\CCO [cis-3-hexen-1-ol],1.01,0.851,0.389,0.326,0.424,0.321,1.32,0.966,0.257,1.09,0.86,1.05,0.166,1.14,0.266,0.956,0.158,0.975,0.942,1.25
CC(=O)OC(C)(C)C1CC=C(C)CC1 (centres undefined) [terpinyl acetate],1.78,1.01,0.991,0.996,0.749,0.963,0.936,1.12,1.1,1.74,1.28,0.863,0.852,0.952,1.01,1.03,0.847,1.6,1.34,1.41
C=CCc1ccc(O)c(OC)c1 [eugenol],2.72 and 1.07,2.19 and 1.27,1.65 and 1.21,1.65 and 1.21,1.68 and 1.06,1.73 and 1.69,0.892,1.58,1.22 and 1.17,2.79 and 1.36,0.88 and 1.47,2.15 and 0.897 and 1.41,1.55 and 1.44,0.84 and 1.35,1.58 and 1.38,1.28 and 1.22 and 1.12,1.51 and 1.62,1.94 and 1.47,1.47 and 1.32,
CC=Cc1ccc(O)c(OC)c1 [isoeugenol],0.99,0.803 and 1.08,1.54,1.43,1.62,1.24,5.64,4.74,1.1,1.35,0.683,2.71 and 1.07,2.02,1.28 and 0.91,1.23,0.982 and 2.01,1.37,0.601,1.45,5.69
CCCCCCCC=CC=O [2-decenal],5.28,0.844,1.15,1.13,1.86,1.04,1.44,1.02,0.688,4.38,38.1,0.968,2.7,0.984,2.03,1.25,2.16,4.07,6.18,2.46
c1ccc(Oc2ccccc2)cc1 [diphenyl ether],0.813,1.06,0.895,0.855,0.792,1.17,0.641,1.06,1.04,1.1,1.04,0.851,1.06,0.869,0.907,1.03,1.02,1.17,0.957,0.902
CCCC(=O)O [butyric acid],1.15,1.17,0.352,0.387,0.493,0.325,0.931,0.855,0.266,1.27,1.3,0.804,0.13,0.832,0.268,1.15,0.186,1.13,1.27,1.12
CCC1(O)C2(C)CCC(C2)C1(C)C (centres undefined) [2-ethylfenchol],4.4,1.25,1.23,1.47,0.977,1.05,0.891,0.718,1.34,2.38,13.9,0.914,1.41,0.754,0.657,1.25,1.26,1.96,4.73,1.97
C=CC(C)(O)CCC=C(C)C (centres undefined) [linalool],0.933,1.24,0.819,0.806,0.843,0.872,0.66,1.04,0.657,0.971,1.03,0.759,0.903,0.871,0.963,0.749,1.11,1.11,1.3,1.03
CCCCCCCCOC(C)=O [octyl acetate],0.857,1.18,0.889,0.849,1,1.08,0.963,0.994,0.969,0.79,0.899,1.11,1.05,1.22,1.27,0.768,0.993,0.963,1.32,1.38
CCCCCOC(C)=O [n-amyl acetate],1.2,1.2,0.829,1.08,0.735,0.841,0.812,1.26,0.735,2.29,1.57,0.578 and 0.695,0.885,0.445,0.72,1 and 1.03,0.914,1.59,1.11,1.97

# Individual results from the entries so far.
# odorant receptor activation (OR2F1 clone 1082) with CC=Cc1ccc(O)c(OC)c1 [isoeugenol] is entered as 1.35
# odorant receptor activation (OR2C1 clone 1406) with CCCCCCCC=CC=O [2-decenal] is entered as 1.86
